Consider 63 substances from the supplement of paper PMC5949888.

± gives the standard deviation of the averaged measurements. Most values lie at the floor of the assay. Slopes are relative: functional sequences can read slightly below zero.

This data set relates to Saccharomyces cerevisiae PS128 hsf1 delta, HSF1(1-493) fusion. The data set is described as follows: growth estimate (transactivation domain function in HSF1 fusion, heat-shock survival) (a.u. (slope of normalised read count over time)); higher = stronger growth at 37°C, i.e. more transactivation activity. The conditions noted are these: library: random library.
Regarding SGSLPEYGGHL, the growth estimate is < -0.25.
The figure for ALPIPSDH is < -0.25.
The figure for SSMLPGGGAKTHVLLPQTC is < -0.25.
With RTLRNCKGCANLAIWTSFDI, the growth estimate is < -0.25.
Next, CGHS: < -0.25.
The figure for CLLQ is -0.25.
For the substance WGLIGHPS, the growth estimate was < -0.25.
As for SQHVNQRHLRARSLPWLHAH, the growth estimate is < -0.25.
As to TVPSIGQRIGLARPRADK, the growth estimate was < -0.25.
As to KLL, the growth estimate is -0.189 ± 0.087.
In the case of VPFSGPQLDVTFQL, the growth estimate was < -0.25.
Turning to PAKTELAQRL, the growth estimate was < -0.25.
Next, CSPRVLIHSEKGWAVDISGK: -0.243.
Next, LFNSLLEYRA: < -0.25; NASPCPALSGRLSWHSSTLM: < -0.25; PDMSSVNNVLRLRLPLPTNI: < -0.25.
Next, SRFTRHECVSSGCCFEYTDV: < -0.25; RHLVIGNVAKPLRSRGNCDP: < -0.25.
For PGFICLTGSRDYCDSIHPAF, the growth estimate was < -0.25.
The figure for PRFKPERTAHVPKLSVSG is < -0.25.
Next, SIPGFQALEIFSSWAERII: < -0.25; ADSS: < -0.25.
Next, PVKDVAGCGTSTNTRAHLRS: < -0.25; IRI: < -0.25.
In the case of VAGGLLLS, the growth estimate is < -0.25.
The figure for NHHLQCFDEKPRSVRAEGCS is < -0.25; for TQDEPS it is < -0.25; for RVLTFRLRAGLLKAYSVWCS it is < -0.25.
Turning to RAEQYLKQQP, the growth estimate is < -0.25.
For the substance VKNSSTTSGFGREPQSIQGR, the growth estimate was < -0.25.
The figure for VSIYPQKGPYLRPHREDDKR is < -0.25; for HILSHPVLFVSSGLMHYVQG it is < -0.25.
Next, NHKEIPTQRLGIVDLVQALG: < -0.25; YYPL: < -0.25.
Next, YVSTARTVQGAREETLVMIT: < -0.25; VKSRPDSIVRGMAVDEV: -0.245; SVPLIFTNLDI: -0.204.
With FCIGSATGQVMPDQM, the growth estimate was < -0.25.
The figure for DIDAVGSL is < -0.25.
Next, VLTPIRIQFCRVH: < -0.25; SSVMVTHVLFLGHRTLCGD: < -0.25; NSEVLHDVASSCLGLATLGT: < -0.25.
The figure for PGVIDCQGLWPFIN is < -0.25; for RTKGWGQPS it is -0.246; for LLGNSASSVIMQVGHASRAA it is < -0.25.
CSGLYVSYKKVISASFLLTR: the growth estimate is < -0.25.
For the substance PQRPSEDLVLYTFQSEFTSG, the growth estimate was < -0.25.
With NGSFV, the growth estimate was < -0.25.
Next, RGYGFLLSLAPAALVPWTIL: < -0.25; YNRGGIKTQQGAGWYATVPR: -0.078.
Turning to FKQHQIVQEHKIREIRNSRV, the growth estimate was < -0.25.
The figure for RVEPSPYSVRLSARRDNS is < -0.25.
Turning to VIFAGPSGPIQ, the growth estimate is < -0.25.
Next, HISWRLLQHRYAR: < -0.25.
Next, EYWTLDRPKGGATHLSVTES: < -0.25; LFSGDLKNGVRPADIYCVRP: < -0.25; TLRLYRTKGGSGCALITGSC: < -0.25.
On to EGPELGIGASRIR, for which the growth estimate is < -0.25.
The figure for RGGFSSEHKGQ is < -0.25; for GLANRLHSSCEGR it is < -0.25.
Next, VGQPPVGDSDWILMKRLS: < -0.25; GLLMVNRPRSSHISA: < -0.25.
With PLRDKWPPWESGDCSHGARA, the growth estimate is < -0.25.
